Measured values taken from publication PMC11568337.
Results are given in words; binding and its absence hold for the method and conditions named. In cells and extracts the contact can be indirect. Some results given as binding are weak or reduced against the parent protein; the word gives no strength.

By UniProt entry, the sequences of proteins in these tests, tags left out.
UniProt P29469: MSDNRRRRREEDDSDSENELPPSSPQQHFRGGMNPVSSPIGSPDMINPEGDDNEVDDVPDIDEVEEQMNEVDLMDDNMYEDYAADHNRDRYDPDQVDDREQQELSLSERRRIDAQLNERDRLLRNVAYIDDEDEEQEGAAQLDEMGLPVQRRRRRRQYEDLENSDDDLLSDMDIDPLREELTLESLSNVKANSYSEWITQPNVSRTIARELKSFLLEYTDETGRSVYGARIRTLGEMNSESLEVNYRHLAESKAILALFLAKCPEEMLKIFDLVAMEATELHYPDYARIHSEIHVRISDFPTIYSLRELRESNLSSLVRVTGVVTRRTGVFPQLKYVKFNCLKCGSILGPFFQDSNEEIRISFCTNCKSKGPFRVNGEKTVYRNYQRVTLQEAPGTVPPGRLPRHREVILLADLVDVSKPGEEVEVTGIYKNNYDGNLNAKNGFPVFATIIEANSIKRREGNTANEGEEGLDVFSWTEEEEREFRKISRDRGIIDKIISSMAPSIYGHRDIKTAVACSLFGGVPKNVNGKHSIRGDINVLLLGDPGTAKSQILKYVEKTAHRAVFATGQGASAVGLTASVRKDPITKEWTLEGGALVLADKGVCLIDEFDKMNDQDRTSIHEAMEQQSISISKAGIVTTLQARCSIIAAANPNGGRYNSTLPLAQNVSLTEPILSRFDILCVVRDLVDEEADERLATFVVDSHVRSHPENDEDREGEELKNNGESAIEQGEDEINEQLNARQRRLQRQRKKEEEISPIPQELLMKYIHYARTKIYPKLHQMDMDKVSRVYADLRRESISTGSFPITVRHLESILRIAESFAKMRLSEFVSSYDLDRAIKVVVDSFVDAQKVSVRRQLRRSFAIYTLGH

How the values were obtained:
[1] = molecular target: actin (S. cerevisiae (endogenous in yeast extract)) (UniProt P60010); experiment: pull-down; actin captured from total yeast cell lysate by bead-bound bicyclic peptide A18 (F-actin specific), 1.5 h at 4 °C; 50 mM HEPES pH 7.5, 20 mM NaCl, 1 mM EDTA, 0.1% Triton X-100; recovered fractions probed by western blot
[2] = molecular target: actin (S. cerevisiae (endogenous in yeast extract)) (UniProt P60010); experiment: pull-down; actin captured from total yeast cell lysate by bead-bound bicyclic peptide A15 (F- and G-actin), 1.5 h at 4 °C; 50 mM HEPES pH 7.5, 20 mM NaCl, 1 mM EDTA, 0.1% Triton X-100; recovered fractions probed by western blot

Q: With Mcm2 (from UniProt P29469 1-868) as the molecule, how does the binding [1] read?
A: no binding

Q: And the binding [2]?
A: no binding

B1: Apn1 (enzyme, UniProt P22936 1-367)
chain: MPSTPSFVRSAVSKYKFGAHMSGAGGISNSVTNAFNTGCNSFAMFLKSPRKWVSPQYTQEEIDKFKKNCATYNYNPLTDVLPHGQYFINLANPDREKAEKSYESFMDDLNRCEQLGIGLYNLHPGSTLKGDHQLQLKQLASYLNKAIKETKFVKIVLENMAGTGNLVGSSLVDLKEVIGMIEDKSRIGVCIDTCHTFAAGYDISTTETFNNFWKEFNDVIGFKYLSAVHLNDSKAPLGANRDLHERLGQGYLGIDVFRMIAHSEYLQGIPIVLETPYENDEGYGNEIKLMEWLESKSESELLEDKEYKEKNDTLQKLGAKSRKEQLDKFEVKQKKRAGGTKRKKATAEPSDNDILSQMTKKRKTKKE
Q: How did the binding [1] turn out when B1 was run?
A: binds

Q: And the binding [2]?
A: binds
